The conditions of data set [1]: Non-Patent Literature 1; cited from earlier work.
Data set [2] is described as follows: Evaluation of scent/aromatic note and diffusion (impregnated filter paper smelled by expert panelist). The arrangement: key to Diffusion: Good: when the intensity of the scent immediately after the filter paper was impregnated was equivalent to that of the reference examples (Example 1 and Example 7), the diffusion was evaluated as “good”; Very good: When the intensity of the scent immediately after the filter paper was impregnated was stronger than that of the reference examples (Example 1 and Example 7), the diffusion was evaluated as “very good”; Poor: When the intensity of the scent immediately after the filter paper was impregnated was weaker (less than the same) than that of the reference examples (Example 1 and Example 7), the diffusion was evaluated as “poor”. Conditions: for Scent, aromatic note: aldehyde composition on filter paper, expert panelist.

“Also recorded” adds a separate entry of the source.

As to `CC(C=O)Cc1ccc(C(C)(C)C)cc1` (stereo not shown) [Comparative Example 5, 3-(p-tert-butylphenyl)-2-methylpropanal], the aroma entry in data set [1] is “lily-of-the-valley-like aroma”.

For the compound `CCCCc1ccc(CC(C)C=O)cc1` (stereo not shown) [Comparative Example 3, 3-(4-n-butylphenyl)-2-methylpropanal], the Diffusion result in data set [2] (Table 2, intensity of scent immediately after impregnation versus reference Example 7) is given as “Poor”. Moreover, in data set [2], the “Scent, aromatic note” value is on record as “Floral,; also recorded: Green,; also recorded: Muguet,; also recorded: Powdery”.

Turning to `CCCCc1ccc(CCC=O)cc1` [Comparative Example 1, 3-(4-n-butylphenyl)propanal], the Diffusion entry in data set [2] (Table 1, intensity of scent immediately after impregnation versus reference Example 1) is listed as “Poor”. For the same compound, in data set [2], the “Scent, aromatic note” value is on record as “Floral,; also recorded: Green,; also recorded: Aldehyde,; also recorded: Muguet”.

`CC(C=O)Cc1ccc2c(c1)OCO2` (stereo not shown) [Helional, 3-(3,4-methylenedioxyphenyl)-2-methylpropanal]: in data set [1], the aroma entry was “sweet heliotrope- and anise-like floral scent”.

`CC(C=O)Cc1ccc(C(C)C)cc1` (stereo not shown) [cyclamen aldehyde, 3-(p-isopropylphenyl)-2-methylpropanal]: the aroma entry in data set [1] is “cyclamen- and lily-of-the-valley-like aroma with a melon- and cucumber-like feeling”.
